Measurements reported in PubChem BioAssay AID1259308 (NCATS, 2017).
The deposit covers about 59,000 reagents; below is an unselected part. About 1,510 of all reagents (2.6%) were called active. 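Calls use total luciferase alone and ignore viability, so some active siRNAs may act by altering cell number.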 The numbers tell different reagents against one gene apart. Further read-outs or replicates are left out here.

Aim: 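Knock-downs that increase output of a recombinant reporter protein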 (primary screen)
Cells: human HEK293 embryonic kidney cells stably expressing firefly luciferase (HEK-CMV-Luc2-Hygro)
Reagents: single siRNA against human genes, 0.8 pmol siRNA per well
Duration: 72 h
Measurement: 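Luciferase light (ONE-Glo) measured on one replicate plate set and viability (CellTiter-Glo) on the other, scaled to a negative control siRNA, with robust z-scores and luciferase per cell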
Reading the numbers: total luciferase, z-score and total luciferase, % of control: higher = more reporter protein produced
Hit rule: 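Active when the median/MAD z-score for overall luciferase is greater than 3; a gene was taken forward for validation with new siRNAs if at least two of its three siRNAs passed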
Meaning of the calls: active = raised luciferase; inactive = no rise

no.	gene symbol	reagent	total luciferase, z-score	total luciferase, % of control	call
1	CIMIP5	1	-1.18	58.4	inactive
2	CIMIP5	2	0.0338	82.6	inactive
3	CIMIP5	3	0.0953	83.8	inactive
4	ZNF22	1	0.131	84.5	inactive
5	ZNF22	2	1.88	119	inactive
6	ZNF22	3	-0.168	78.5	inactive
7	ABI3BP	1	-0.865	64.7	inactive
8	ABI3BP	2	0.416	90.2	inactive
9	ABI3BP	3	-0.612	69.7	inactive
10	NXNL2	1	0.0825	83.5	inactive
11	NXNL2	2	-1.47	52.7	inactive
12	NXNL2	3	-1.15	59	inactive
13	CSGALNACT1	1	-0.821	65.6	inactive
14	CSGALNACT1	2	-0.962	62.8	inactive
15	CSGALNACT1	3	1.54	113	inactive
16	FGA	1	0.323	88.3	inactive
17	FGA	2	0.827	98.3	inactive
18	FGA	3	-1.58	50.5	inactive
19	PRDM12	1	-2.53	31.5	inactive
20	PRDM12	2	2.67	135	inactive
21	PRDM12	3	-0.239	77.1	inactive
22	SERTAD4	1	0.299	87.8	inactive
23	SERTAD4	2	-0.0272	81.3	inactive
24	SERTAD4	3	0.239	86.6	inactive
25	SIRT1	1	-0.147	79	inactive
26	SIRT1	2	3.32	148	active
27	SIRT1	3	1.26	107	inactive
28	ABI3	1	-0.393	74.1	inactive
29	ABI3	2	0.122	84.3	inactive
30	ABI3	3	-0.857	64.8	inactive
31	TOX	1	-1.2	58	inactive
32	TOX	2	0.459	91	inactive
33	TOX	3	-1.29	56.3	inactive
34	EXOC1	1	0.226	86.4	inactive
35	EXOC1	2	-0.121	79.5	inactive
36	EXOC1	3	0.591	93.6	inactive
37	KRT71	1	3.01	142	active
38	KRT71	2	2.76	137	inactive
39	KRT71	3	-0.0687	80.5	inactive
40	GPR19	1	-0.299	75.9	inactive
41	GPR19	2	0.176	85.4	inactive
42	GPR19	3	-1.06	60.7	inactive
43	TCP10L3	1	-0.421	73.5	inactive
44	TCP10L3	2	-1.44	53.2	inactive
45	TCP10L3	3	-0.68	68.4	inactive
46	IQCK	1	3.42	150	active
47	IQCK	2	0.0627	83.1	inactive
48	IQCK	3	0.202	85.9	inactive
49	GABRG1	1	0.105	84	inactive
50	GABRG1	2	0.0688	83.3	inactive
51	GABRG1	3	-0.343	75.1	inactive
52	F2RL2	1	-0.291	76.1	inactive
53	F2RL2	2	0.191	85.7	inactive
54	F2RL2	3	-0.592	70.1	inactive
55	TBCC	1	-1.04	61.2	inactive
56	TBCC	2	-1.72	47.7	inactive
57	TBCC	3	1.85	119	inactive

In a second layout: 9 of the entries above.
| gene symbol | reagent | total luciferase, z-score | total luciferase, % of control | call |
| --- | --- | --- | --- | --- |
| SIRT1 | 1 | -0.147 | 79 | inactive |
| SIRT1 | 2 | 3.32 | 148 | active |
| SIRT1 | 3 | 1.26 | 107 | inactive |
| ABI3 | 1 | -0.393 | 74.1 | inactive |
| ABI3 | 2 | 0.122 | 84.3 | inactive |
| ABI3 | 3 | -0.857 | 64.8 | inactive |
| TOX | 1 | -1.2 | 58 | inactive |
| TOX | 2 | 0.459 | 91 | inactive |
| TOX | 3 | -1.29 | 56.3 | inactive |
